Results as given in paper PMC7581431.
These are yes or no findings as the source states them, for the method shown. Some results given as binding are weak or reduced against the parent protein; the word gives no strength.

T1: RFP-NKD1-EF (human) (UniProt Q969G9)
T1 sequence: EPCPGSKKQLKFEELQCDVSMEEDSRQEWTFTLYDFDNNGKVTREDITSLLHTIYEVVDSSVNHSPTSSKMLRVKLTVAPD


What was measured:
RFP-NKD1-EF (human) [1] = molecular target: T1, RFP-NKD1-EF (human); experiment: SEC-MALS; purified proteins and preformed complexes, Superdex-200 10/300, 2 mg/ml, 15 mM TrisHCl, 150 mM NaCl, pH 7.4; both purified
RFP-NKD1-EF (human) [2] = molecular target: T1, RFP-NKD1-EF (human); experiment: condition: 696 μM Lip-DVL2-PDZ-V334E injected into 17.2 μM RFP-NKD-EF; ITC; MicroCal iTC200, 15 mM Tris-HCl, 150 mM NaCl, pH 7.4; Lip-DVL2-PDZ or Lip-DVL2-PDZ-V334E (696 μM) injected into 17.2 μM RFP-NKD-EF; both purified

binding (RFP-NKD1-EF (human) [1])	binding (RFP-NKD1-EF (human) [2])	Binder
binds		Lip-DVL2-PDZ (domain or fragment, UniProt O14641 285-373) QSNERGDGGIYIGSIMKGGAVAADGRIEPGDMLLQVNDMNFENMSNDDAVRVLRDIVHKPGPIVLTVAKCWDPSPQAYFTLPRNEPIQP
	no binding	Lip-DVL2-PDZ-V334E (domain or fragment, UniProt O14641 285-373) QSNERGDGGIYIGSIMKGGAVAADGRIEPGDMLLQVNDMNFENMSNDDAERVLRDIVHKPGPIVLTVAKCWDPSPQAYFTLPRNEPIQP
